Taken from: PubChem BioAssay AID504764 (Drosophila RNAi Screening Center, 2011)

- Aim: 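Genome-wide screen for regulators of Notch-driven gene expression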 (primary screen)
- Cell system: Drosophila Kc167 cells
- Knock-down reagent: long dsRNA against Drosophila genes
- Duration: about 5 days (4 days dsRNA, then 24 h after transfection)
- Challenge: transfection of constitutively active membrane-tethered Notch lacking the extracellular domain, read 24 h later
- Measured: 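Light from a Notch-responsive E(spl)m3 luciferase reporter under active Notch, with control-promoter and no-Notch reporter wells to normalise; raw counts from paired wells a and b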
- Direction: induced reporter light, run 1, well a and induced reporter light, run 1, well b: higher = more light from the Notch target reporter with active Notch; control promoter light, run 1, well a and control promoter light, run 1, well b: higher = more light from the viral control promoter (cell number, transfection, viability); uninduced reporter light, run 1, well a: higher = more light from the Notch target reporter without active Notch
- Hit rule: 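Wells with low control signal or poorly matching duplicates excluded; duplicates averaged; per source plate, z beyond ±2 for induced/control log2 ratio or beyond ±1.8 for induced/uninduced marks a hit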
- Calls: active = modifier hit (raised or lowered Notch signal); inactive = not a hit
In all, the deposit lists about 22,000 reagents; below is a random part of those with a known target gene and a result. In the full data, 403 (1.9%) are marked active. 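Unnormalised raw counts per well; ratio z-scores behind the hit calls and whether each hit raises or lowers signal are not deposited.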 Not given: the amount of reagent.

| gene | amplicon | induced reporter light, run 1, well a | induced reporter light, run 1, well b | control promoter light, run 1, well a | control promoter light, run 1, well b | uninduced reporter light, run 1, well a | activity call |
| --- | --- | --- | --- | --- | --- | --- | --- |
| Rpn5 (Regulatory particle non-ATPase 5) | DRSC12367 | 26615 | 28700 | 13700 | 11405 | 2835 | inactive |
| phyl (phyllopod) | DRSC07663 | 63935 | 89530 | 91715 | 87545 | 7820 | inactive |
| CG6696 | DRSC20004 | 1.07e5 | 1.15e5 | 1.13e5 | 1.55e5 | 11955 | inactive |
| Prip | DRSC07044 | 1.78e5 | 1.66e5 | 1.60e5 | 1.47e5 | 13885 | inactive |
| PlexB (Plexin B) | DRSC17177 | 1.24e5 | 1.06e5 | 2.23e5 | 2.28e5 | 8615 | inactive |
| CG14866 | DRSC14989 | 2.25e5 | 2.18e5 | 1.94e5 | 2.01e5 | 17400 | inactive |
| CG7881 | DRSC04898 | 1.59e5 | 1.60e5 | 1.87e5 | 1.44e5 | 10515 | inactive |
| CG32219 | DRSC09641 | 2.81e5 | 2.23e5 | 2.62e5 | 2.98e5 | 22285 | inactive |
| axed (axundead) | DRSC08833 | 1.91e5 | 1.92e5 | 2.04e5 | 2.03e5 | 13890 | inactive |
| axed (axundead) | DRSC10982 | 2.14e5 | 1.81e5 | 2.23e5 | 2.04e5 | 8970 | inactive |
| CG2182 | DRSC12308 | 1.62e5 | 1.60e5 | 1.02e5 | 91220 | 11930 | inactive |
| CG14684 | DRSC14907 | 84475 | 74955 | 73470 | 53235 | 5925 | inactive |
| mrt (martik) | DRSC15484 | 1.01e5 | 1.23e5 | 2.07e5 | 1.86e5 | 11105 | inactive |
| CG13144 | DRSC02241 | 1.28e5 | 1.50e5 | 70265 | 87365 | 19640 | inactive |
| CG15120 | DRSC06542 | 44155 | 33465 | 48585 | 49000 | 3780 | inactive |
| vers (versatile) | DRSC10715 | 90900 | 77605 | 54630 | 26785 | 10130 | inactive |
| CG10205 | DRSC05979 | 67295 | 65900 | 1.02e5 | 1.00e5 | 6180 | inactive |
| Cdc42 (Cell division cycle 42) | DRSC20228 | 71685 | 92710 | 95990 | 1.23e5 | 7255 | inactive |
| CG3939 | DRSC18498 | 98980 | 1.11e5 | 1.60e5 | 1.92e5 | 8180 | inactive |
| Tsp42El (Tetraspanin 42El) | DRSC06186 | 1.82e5 | 2.34e5 | 2.21e5 | 2.49e5 | 18820 | inactive |

2 successive records from above:
| gene | amplicon | induced reporter light, run 1, well a | induced reporter light, run 1, well b | control promoter light, run 1, well a | control promoter light, run 1, well b | uninduced reporter light, run 1, well a | activity call |
| --- | --- | --- | --- | --- | --- | --- | --- |
| CG15120 | DRSC06542 | 44155 | 33465 | 48585 | 49000 | 3780 | inactive |
| vers (versatile) | DRSC10715 | 90900 | 77605 | 54630 | 26785 | 10130 | inactive |
